From paper PMC10924461, “Structure and ligand binding in the putative anti-microbial peptide transporter protein, YejA” (Microbiology, 2024)
Results are given in words; binding and its absence hold for the method and conditions named. In cells and extracts the contact can be indirect. A yes stands for co-enrichment or nearness to the bait. Other partners may have been found.

T1: YejA, periplasmic solute-binding protein of the YejABEF ABC transporter from E. coli (E. coli K12) (UniProt P33913)
T1 sequence: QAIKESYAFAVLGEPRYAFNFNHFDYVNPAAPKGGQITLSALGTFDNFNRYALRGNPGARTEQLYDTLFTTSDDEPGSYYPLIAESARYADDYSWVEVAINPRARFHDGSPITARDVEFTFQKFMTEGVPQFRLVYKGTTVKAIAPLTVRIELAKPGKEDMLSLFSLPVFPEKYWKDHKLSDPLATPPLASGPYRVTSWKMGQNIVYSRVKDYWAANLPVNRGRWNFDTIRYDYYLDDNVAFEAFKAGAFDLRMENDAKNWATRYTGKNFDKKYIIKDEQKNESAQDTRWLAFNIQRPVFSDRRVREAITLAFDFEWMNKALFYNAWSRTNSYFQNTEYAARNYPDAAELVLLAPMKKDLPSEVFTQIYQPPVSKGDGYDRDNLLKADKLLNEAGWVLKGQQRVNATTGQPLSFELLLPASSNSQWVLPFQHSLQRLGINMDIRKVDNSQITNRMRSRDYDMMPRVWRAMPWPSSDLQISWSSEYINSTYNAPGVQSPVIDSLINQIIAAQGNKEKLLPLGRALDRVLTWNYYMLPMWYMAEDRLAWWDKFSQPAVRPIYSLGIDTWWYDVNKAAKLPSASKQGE


The binders below were run against T1, YejA, periplasmic solute-binding protein of the YejABEF ABC transporter from E. coli (E. coli K12) (assay: affinity purification with mass spectrometry; peptides stripped from purified YejA preparations (TFA, C18 ZipTip) and identified by MALDI-MS/MS against the YejA sequence).

binding, binds:
FAVLGEPRYAFNFN
VLGEPRYAFNFNHF
FAVLGEPRYAFNFNH
VLGEPRYAFNFNHFDY
AFAVLGEPRYAFNFNHF
AVLGEPRYAFNFNHFDY
AFAVLGEPRYAFNFNHFDY
VLGEPRYAFN
VLGEPRYAFNFNH
AVLGEPRYAFNFNH
